Laboratory results taken from patent US7767648B2, “Tissue specific prodrugs” (priority 2000, dated 2010).
Some results were stated once for a whole list of compounds, not compound by compound. Some compounds share one range, which may span the group rather than tell each member.

Assay: Stability of PSMA substrates in mouse plasma, 18 hour incubation, HPLC
Assay type: in vitro ADME
Settings: after 18 hours
Text: In order that the prodrugs can be administered systemically via the blood, their stability in sera must be sufficiently high to avoid hydrolysis or other degradative processes which may occur prior to the prodrugs reaching their target tissues. In addition to GGH activity, a human blood plasma glutamate carboxypeptidase (PGCP) that has significant sequence homology to PSMA and glutamate carboxypeptidase activity has been identified. Therefore, to assay hydrolysis by GGH and other serum carboxypeptidases like PGCP, the APA-Glu*Glu*Glu*Glu*Asp, APA-Glu*Glu*Glu*Glu*Gln, and APA-Glu*Glu*Glu*Glu*Glu substrates were incubated in human and mouse plasma and hydrolysis determined by HPLC analysis after an 18-hour incubation, as shown in Table 3. As noted, GGH efficiently hydrolyzes poly-γ-glutamate chains as well as poly-γ-glutamated folate and methotrexate. GGH, however, is unable to hydrolyze α-linked peptides.
In Tables 1-3, to simplify identification of the type of amino acid linkages employed, α-linkages are denoted by a hyphen (for example, Glu-Glu) and all side-chain linkages are denoted by a star (for example, Glu*Glu). The column labeled “% PSMA Hydrolysis” refers to the percentage of hydrolysis of a substrate to APA-Asp or to APS-Glu by purified PSMA. The column labeled “% APA-Asp or -Glu” refers to the percentage of hydrolysis of substrate to APA-Asp or APA-Glu. The column labeled “% Prodrug Remaining” refers to the area of the HPLC peak attributable to starting material divided by the areas of HPLC peaks attributable to starting material, intermediate products, and final products. […] “ND” means “not determined,” in that the experiment was not performed.

Compound	conversion of analog directly to APA-Glu (methotrexate)
CN(Cc1cnc2nc(N)nc(N)c2n1)c1ccc(C(=O)N[C@@H](CCC(=O)N[C@@H](CCC(=O)N[C@@H](CCC(=O)N[C@@H](CCC(=O)N[C@@H](CCC(N)=O)C(=O)O)C(=O)O)C(=O)O)C(=O)O)C(=O)O)cc1 [APA-Glu*Glu*Glu*Glu*Gln]	60-75%
CN(Cc1cnc2nc(N)nc(N)c2n1)c1ccc(C(=O)N[C@@H](CCC(=O)N[C@@H](CCC(=O)N[C@@H](CCC(=O)N[C@@H](CCC(=O)N[C@@H](CC(=O)O)C(=O)O)C(=O)O)C(=O)O)C(=O)O)C(=O)O)cc1 [APA-Glu*Glu*Glu*Glu*Asp]	60-75%
CN(Cc1cnc2nc(N)nc(N)c2n1)c1ccc(C(=O)N[C@@H](CCC(=O)N[C@@H](CCC(=O)N[C@@H](CCC(=O)N[C@@H](CCC(=O)N[C@@H](CCC(=O)O)C(=O)O)C(=O)O)C(=O)O)C(=O)O)C(=O)O)cc1 [APA-Glu*Glu*Glu*Glu*Glu, reference compound]	60-75%
